# The other results are listed elsewhere or left out.
# B1: RetS (Pseudomonas aeruginosa), Q9HUV7 (protein)
# chain: MVRLRIAIGLLVSFLLLLLGPMSPAVADDAGVSSVPLQTTATTPSANQNWRLLRDESAQLRIADVLQRKEQFRPLAKRSFIFPASPQAVWLQVQLPAQKVPSWLWIFAPRVQYLDYYLVQDGQLVRDQHTGESRPFQERPLPSRSYLFSLPVDGKPMTLYVRMTSNHPLMAWFDQIDEAGLVGLEKPAYAFGMLLGGMLLLLMYNLIRFAYSRSASSLWLAAVHAALAVCAAANLGLVAFWLPGLKFNQSLTADLGALGAAVSLLWFACSFFRGTAESRLNRLLQGEALLILAVGAIIAFTQQLWFSWLIYLLVILSSLSVPLIAAWHWYRGYQPARLIVAGMIVFNAGFMVFLPVLFGTKQLDPGWLVLGVFSFATLAGLVLSVSLTERQRLIQQLNLQQRTSEAAHTAELQTKAEFLAKISHEIRTPMNGVLGMTELLLGTPLSAKQRDYVQTIHSAGNELLTLINEILDISKLESGQIELDEVQFDLNALIEDCLDIFRVKAEQQRIELISFTQPQVPRVIGGDPTRLRQVVLSLLDNAFKQTEEGEILLVVALDDQGETPRLRIAVQDSGHPFDAKEREALLTAELHSGDFLSASKLGSHLGLIIARQLVRLMGGEFGIQSGSSQGTTLSLTLPLDPQQLENPTADLDGPLQGARLLVVDDNETCRKVLVQQCSGWGLNVSAVSSGKEALAQLRTKAHLREYFDVVLLDQDMPGMTGMQLAAKIKEDPNLNHDILLIMLTGISNAPSKIIARNAGIKRILAKPVAGYTLKATLADELAQRGVSGVTNYLQPAKEAQAPSLPSDFRILVAEDNSISTKVIRGMLNKLNLQPDTASNGQEALSAMKATQYDLVLMDCEMPVLDGFSATEQLRAWEAHEQRPHTPVVALTAHILSEHKERARLVGMDGHMAKPVELSQLRELIAYWVGERDRRRQGDALPS
# How the values were obtained:
# Test in all cases: glycan array binding signal (z-score within array); higher = stronger binding
# Settings in all cases: glycan notation: IUPAC condensed, linker removed
# [1] = biological target: Gal3S(b1-3)[Fuc(a1-4)]GlcNAc
# Outline: (§1)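 The Consortium for Functional Glycomics database supplied 3228 glycan arrays, of which those lacking an available protein sequence were dropped. The binding signal, a within-array Z-score, was averaged across arrays of the same protein sequence and across linkers. Negative scores can be read as non-binding.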
# Gal3S(b1-4)Glc = biological target: Gal3S(b1-4)Glc
# Outline: as §1
# Gal3S(b1-4)Glc6S = biological target: Gal3S(b1-4)Glc6S
# Outline: as §1
# Gal3S(b1-4)GlcNAc = biological target: Gal3S(b1-4)GlcNAc
# Outline: as §1
# Gal3S(b1-4)GlcNAc6S = biological target: Gal3S(b1-4)GlcNAc6S
# Outline: as §1
# [2] = biological target: Gal3S(b1-4)[Fuc(a1-3)]Glc
# Outline: as §1
# [3] = biological target: Gal3S(b1-4)[Fuc(a1-3)]Glc6S
# Outline: as §1
# Gal3S4S(b1-4)GlcNAc = biological target: Gal3S4S(b1-4)GlcNAc
# Outline: as §1
# Gal3S6S(b1-4)GlcNAc = biological target: Gal3S6S(b1-4)GlcNAc
# Outline: as §1
# Gal3S6S(b1-4)GlcNAc6S = biological target: Gal3S6S(b1-4)GlcNAc6S
# Outline: as §1
# Gal4S(b1-4)GlcNAc = biological target: Gal4S(b1-4)GlcNAc
# Outline: as §1
# Gal4S6S(b1-4)GlcNAc = biological target: Gal4S6S(b1-4)GlcNAc
# Outline: as §1
# Gal6S(b1-3)GlcNAc = biological target: Gal6S(b1-3)GlcNAc
# Outline: as §1
# Gal6S(b1-3)GlcNAc6S = biological target: Gal6S(b1-3)GlcNAc6S
# Outline: as §1
# Gal6S(b1-4)Glc = biological target: Gal6S(b1-4)Glc
# Outline: as §1
# Gal6S(b1-4)Glc6S = biological target: Gal6S(b1-4)Glc6S
# Outline: as §1
# Gal6S(b1-4)GlcNAc = biological target: Gal6S(b1-4)GlcNAc
# Outline: as §1
# Gal6S(b1-4)GlcNAc6S = biological target: Gal6S(b1-4)GlcNAc6S
# Outline: as §1
# GalNAc(a1-3)Gal = biological target: GalNAc(a1-3)Gal
# Outline: as §1
# GalNAc(a1-3)GalNAc = biological target: GalNAc(a1-3)GalNAc
# Outline: as §1
# [4] = biological target: GalNAc(a1-3)GalNAc(a1-3)Gal(a1-4)Gal(b1-4)GlcNAc
# Outline: as §1
# [5] = biological target: GalNAc(a1-3)GalNAc(b1-3)Gal(a1-4)Gal(b1-4)Glc
# Outline: as §1
# GalNAc(b1-3)Gal = biological target: GalNAc(b1-3)Gal
# Outline: as §1
# [6] = biological target: GalNAc(b1-3)Gal(a1-4)Gal(b1-4)GlcNAc
# Outline: as §1
# [7] = biological target: GalNAc(b1-3)Gal(a1-4)Gal(b1-4)GlcNAc(b1-3)Gal(b1-4)Glc
# Outline: as §1
# [8] = biological target: GalNAc(b1-3)Gal(a1-6)Gal(b1-4)Glc
# Outline: as §1
# GalNAc(b1-3)GalNAc = biological target: GalNAc(b1-3)GalNAc
# Outline: as §1
# GalNAc(b1-4)Gal(b1-4)Glc = biological target: GalNAc(b1-4)Gal(b1-4)Glc
# Outline: as §1
# GalNAc(b1-4)GlcNAc = biological target: GalNAc(b1-4)GlcNAc
# Outline: as §1
# [9] = biological target: GalNAc(b1-4)GlcNAc(b1-2)Man(a1-3)[GalNAc(b1-4)GlcNAc(b1-2)Man(a1-6)]Man(b1-4)GlcNAc(b1-4)GlcNAc
# Outline: as §1
binder,measurement,setting,value
B1,glycan array binding signal (z-score),[1],0.75
same,glycan array binding signal (z-score),Gal3S(b1-4)Glc,-0.308
same,glycan array binding signal (z-score),Gal3S(b1-4)Glc6S,0.403
same,glycan array binding signal (z-score),Gal3S(b1-4)GlcNAc,1.15
same,glycan array binding signal (z-score),Gal3S(b1-4)GlcNAc6S,-0.988
same,glycan array binding signal (z-score),[2],-0.57
same,glycan array binding signal (z-score),[3],0.045
same,glycan array binding signal (z-score),Gal3S4S(b1-4)GlcNAc,-0.457
same,glycan array binding signal (z-score),Gal3S6S(b1-4)GlcNAc,-0.562
same,glycan array binding signal (z-score),Gal3S6S(b1-4)GlcNAc6S,0.84
same,glycan array binding signal (z-score),Gal4S(b1-4)GlcNAc,-0.699
same,glycan array binding signal (z-score),Gal4S6S(b1-4)GlcNAc,0.028
same,glycan array binding signal (z-score),Gal6S(b1-3)GlcNAc,0.626
same,glycan array binding signal (z-score),Gal6S(b1-3)GlcNAc6S,-1.69
same,glycan array binding signal (z-score),Gal6S(b1-4)Glc,-0.084
same,glycan array binding signal (z-score),Gal6S(b1-4)Glc6S,-0.756
same,glycan array binding signal (z-score),Gal6S(b1-4)GlcNAc,-0.462
same,glycan array binding signal (z-score),Gal6S(b1-4)GlcNAc6S,0.341
same,glycan array binding signal (z-score),GalNAc(a1-3)Gal,-0.593
same,glycan array binding signal (z-score),GalNAc(a1-3)GalNAc,-0.917
same,glycan array binding signal (z-score),[4],-0.424
same,glycan array binding signal (z-score),[5],0.419
same,glycan array binding signal (z-score),GalNAc(b1-3)Gal,-0.593
same,glycan array binding signal (z-score),[6],1.47
same,glycan array binding signal (z-score),[7],0.224
same,glycan array binding signal (z-score),[8],-0.305
same,glycan array binding signal (z-score),GalNAc(b1-3)GalNAc,0.75
same,glycan array binding signal (z-score),GalNAc(b1-4)Gal(b1-4)Glc,1.21
same,glycan array binding signal (z-score),GalNAc(b1-4)GlcNAc,0.31
same,glycan array binding signal (z-score),[9],-0.726

# Reformatted as tab-separated lines: entries from further up
binder	measurement	setting	value
B1	glycan array binding signal (z-score)	Gal3S(b1-4)Glc	-0.308
same	glycan array binding signal (z-score)	Gal3S(b1-4)Glc6S	0.403
same	glycan array binding signal (z-score)	Gal3S4S(b1-4)GlcNAc	-0.457
same	glycan array binding signal (z-score)	Gal3S6S(b1-4)GlcNAc6S	0.84
same	glycan array binding signal (z-score)	Gal4S(b1-4)GlcNAc	-0.699
same	glycan array binding signal (z-score)	GalNAc(a1-3)GalNAc	-0.917
same	glycan array binding signal (z-score)	GalNAc(b1-3)Gal	-0.593
same	glycan array binding signal (z-score)	GalNAc(b1-3)GalNAc	0.75
